Data reported in patent publication US20210130428A1 (Novartis, published 2021).
Results are given in words; binding and its absence hold for the method and conditions named. Some binding calls cover weakened binding; strength is not graded here.

By UniProt entry, the sequences of proteins in these tests, tags left out. Residues count along the entry.
UniProt P22004, residues 382-513: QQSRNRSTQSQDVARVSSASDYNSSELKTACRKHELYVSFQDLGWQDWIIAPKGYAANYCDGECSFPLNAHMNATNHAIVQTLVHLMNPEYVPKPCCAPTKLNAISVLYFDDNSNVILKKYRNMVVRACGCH

Legend:
[1] = target: human BMP6 (Bone Morphogenetic Protein 6) (human) (UniProt P22004); assay: HDxMS
[2] = target: human BMP6 (Bone Morphogenetic Protein 6) (human) (UniProt P22004); assay: ELISA binding assay, fluorescence signal intensity (anti-Fab-AP detection); one bar per antigen, antibody concentration not given
[3] = target: human BMP6 (Bone Morphogenetic Protein 6) (human) (UniProt P22004); assay: ELISA binding assay

Measured: binding

B1: Antibody 7 (antibody, human IgG1, lambda, V domains shown)
VH: QVQLVESGGGLVKPGGSLRLSCAASGFTFSSYVVHWVRQAPGKGLEWVGRIRLETHGYAAEYAASVKGRFTISRDDSKNTLYLQMNSLKTEDTAVYYCARVERSKSGFDNWGQGTLVTVSS
VL: QSVLTQPPSVSGAPGQRVTISCTGSSSNIGAGYSVHWYQQLPGTAPKLLIYGQSERPSGVPDRFSGSKSGTSASLAITGLQAEDEADYYCQSWDSSQTLVVFGGGTKLTVLG
notes: also called Ab 7; Ab7
binds: all assays above
